Measurements taken from the supplement of paper PMC4749390.
Where a name gives a salt, the structure may show the parent alone. Some of the results follow. Single values are uncertain here, since repeats match poorly.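 JEG3 cells stably express tetracycline-inducible wild-type human LRH-1, a highly sumoylated nuclear receptor. SUMO-sensitive transcripts APOC3 and MUC1, increased by SUMO-deficient LRH-1 or UBC9 knockdown, were quantified by RT-qPCR relative to TBP and DMSO controls. Primary hits had robust Z-scores above +2 or below -2, before toxicity and TBP filtering.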

Each compound was assayed on JEG3 expressing hLRH-1 (assay: APOC3 transcript change (ddCt vs TBP and DMSO), Z-score over library; higher = higher APOC3 expression). Conditions: 10 µM; time (hr): 24.

| Structure (SMILES) | APOC3 transcript change (Z-score) |
| --- | --- |
| NCCCC[C@H](N[C@@H](CCc1ccccc1)C(=O)O)C(=O)N1CCC[C@H]1C(=O)O [lisinopril] | 0.409 |
| CCN(CCCCOC(=O)c1ccc(OC)c(OC)c1)C(C)Cc1ccc(OC)cc1 (stereo not given) [mebeverine hydrochloride] | -0.457 |
| O=C(N/N=C/c1ccc([N+](=O)[O-])o1)c1ccc(O)cc1 [nifuroxazide] | -1.21 |
| N=C(N)N1CCc2ccccc2C1 [Debrisoquin sulfate] | -1.1 |
| CCCCCCCCCCCCCCCCCCCCCCO [docosanol] | 1.77 |
| COc1ccccc1N1CCN(CCCNc2cc(=O)n(C)c(=O)n2C)CC1 [Urapidil hydrochloride] | -0.549 |
| Cc1cc2c(s1)Nc1ccccc1N=C2N1CCN(C)CC1 [olanzapine] | -0.00974 |
| COc1ccc(O)cc1 [mequinol] | 0.54 |
| NCCCC(=O)O | -1.06 |
| COc1ccc2cc([C@H](C)C(=O)O)ccc2c1 [(+)naproxen] | 0.541 |
| O=C(c1cccnc1)N1CCOCC1 [nicopholine] | -0.776 |
| CCn1cc(C(=O)O)c(=O)c2cc(F)c(N3CCNCC3)cc21 [norfloxacin] | -0.26 |
| O=S(=O)(O)NC1CCCCC1 [cyclamic acid] | -0.215 |
| C[C@@H]1CC2C3CCC4=CC(=O)C=C[C@]4(C)[C@@]3(F)[C@@H](O)C[C@]2(C)[C@@]1(O)C(=O)CO (stereo not given in full) [dexamethasone] | 0.802 |
| CC1C(OC(=O)C(O)c2ccccc2)CCC(C)(C)N1C (stereo not given) [eucatropine hydrochloride] | -0.554 |
| CN(C(=O)CN(CCO)CC(=O)N(C)C(C)(C)Cc1ccccc1)C(C)(C)Cc1ccccc1 [oxethazaine] | 0.949 |
| O=C(N[C@H](CO)[C@H](O)c1ccc([N+](=O)[O-])cc1)C(Cl)Cl [chloramphenicol] | 0.573 |
| CCC[C@@H]1C[C@@H](C(=O)N[C@@H]([C@H]2O[C@H](SC)[C@H](O)[C@@H](O)[C@H]2O)[C@H](C)Cl)N(C)C1 [clindamycin hydrochloride] | -0.0399 |
| Cc1cccc(C)c1OCC(C)N (stereo not given) [mexiletine hydrochloride] | 0.238 |
| CCN(CC)CCc1nc(-c2ccccc2)no1 [oxolamine citrate] | -0.149 |
| CC(C)(CO)C(O)C(=O)NCCCO (stereo not drawn) [panthenol (dl)] | -0.69 |
| CCN(CC)CCNC(=O)c1cc(Cl)c(N)cc1OC [Metoclopramide hydrochloride] | -0.0395 |
| Cc1cnc(C(=O)O)c[n+]1[O-] [acipimox] | -0.384 |
| C[N+](C)(C)C[C@H](O)CC(=O)O [levocarnitine] | 0.0974 |
| C[C@@H]1CC2C3C[C@H](F)C4=CC(=O)C=C[C@]4(C)[C@@]3(F)[C@@H](O)C[C@]2(C)[C@@]1(O)C(=O)CO (stereo not given in full) [flumethasone] | 0.408 |

Quoted from the listing:
`C[C@@H]1CC2C3CCC4=CC(=O)C=C[C@]4(C)[C@@]3(F)[C@@H](O)C[C@]2(C)[C@@]1(O)C(=O)CO` (stereo not given in full) [dexamethasone] | APOC3 transcript change (Z-score): 0.802
`Cc1cc2c(s1)Nc1ccccc1N=C2N1CCN(C)CC1` [olanzapine] | APOC3 transcript change (Z-score): -0.00974
`O=C(c1cccnc1)N1CCOCC1` [nicopholine] | APOC3 transcript change (Z-score): -0.776

Later entries.

| Structure (SMILES) | APOC3 transcript change (Z-score) |
| --- | --- |
| CC(=O)O[C@]1(C(C)=O)CCC2C3C=C(C)C4=CC(=O)CCC4(C)C3CCC21C (stereo not given in full) [megestrol acetate] | 0.579 |
| CC(=O)[C@@]1(O)CC[C@H]2[C@@H]3C[C@H](C)C4=CC(=O)C=C[C@]4(C)[C@@]3(F)[C@@H](O)C[C@@]21C [fluorometholone] | 0.00543 |
| CO/C(O)=C1\C(C)=NC(C)=C(C(=O)OCCN(C)Cc2ccccc2)C1c1cccc([N+](=O)[O-])c1 (stereo not given) [Nicardipine hydrochloride] | 1.02 |
| O=C(NCC(O)CO)c1c(I)c(C(=O)NCC(O)CO)c(I)c(N(CCO)C(=O)CO)c1I (stereo not given) [ioversol] | -0.0537 |
| CC(C)NCC(O)COc1ccc(CCOCC2CC2)cc1 (stereo not given) [betaxalol hydrochloride] | -0.482 |
| C[C@@H]1CC[C@H]2[C@@H](C)C(O)O[C@@H]3O[C@@]4(C)CC[C@@H]1[C@]32OO4 (stereo not given in full) [artenimol] | 0.472 |
| CC1(C)O[C@@H]2CC3C4C[C@H](F)C5=CC(=O)CC[C@]5(C)C4[C@@H](O)C[C@]3(C)[C@]2(C(=O)CO)O1 (stereo not given in full) [flurandrenolide] | 0.101 |
| COC1=C(OC)C(=O)C(CCCCCCCCCCO)=C(C)C1=O [idebenone] | -0.866 |
| C[C@H](N[C@@H](CCc1ccccc1)C(=O)O)C(=O)N1CCC[C@H]1C(=O)O [enalaprilat] | -0.3 |
| C[C@](N)(Cc1ccc(O)c(O)c1)C(=O)O [L-alpha-Methyl DOPA] | 0.0704 |
| CO/N=C(/C(=O)N[C@@H]1C(=O)N2C(C(=O)O)=C(CSc3nc(=O)c(O)nn3C)CS[C@H]12)c1csc(N)n1 [ceftriaxone sodium trihydrate] | -0.0894 |
| CC[C@H](C)C(=O)O[C@H]1C[C@@H](C)C=C2C=C[C@H](C)[C@H](CC[C@@H]3C[C@@H](O)CC(=O)O3)[C@H]21 [lovastatin] | 1.39 |
| CCCCN1CCCCC1C(=O)Nc1c(C)cccc1C (stereo not given) [bupivacaine hydrochloride] | -0.423 |
| OCCN1CCN(CCCN2c3ccccc3Sc3ccc(C(F)(F)F)cc32)CC1 [Fluphenazine dihydrochloride] | 0.651 |
| Nc1nnc(-c2cccc(Cl)c2Cl)c(N)n1 [lamotrigine] | 0.255 |
| O=C1CN(/N=C/c2ccc(-c3ccc([N+](=O)[O-])cc3)o2)C(=O)N1 [dantrolene sodium] | -0.589 |
| CCN(CC)CCNC(=O)c1cc(S(C)(=O)=O)ccc1OC [tiapride hydrochloride] | 0.907 |
| CCOc1nc2cccc(C(=O)OC(C)OC(=O)OC3CCCCC3)c2n1Cc1ccc(-c2ccccc2-c2nn[nH]n2)cc1 (stereo not given) [candesartan cilextil] | -0.216 |
| Cc1c2oc3c(C)ccc(C(=O)OC(C)C4NC(=O)C(C(C)C)N(C)C(=O)CN(C)C(=O)C5CCCN5C(=O)C(C(C)C)NC4=O)c3nc-2c(C(=O)OC(C)C2NC(=O)C(C(C)C)N(C)C(=O)CN(C)C(=O)C3CCCN3C(=O)C(C(C)C)NC2=O)c(N)c1=O (stereo not given) [dactinomycin] | 1.74 |
| CC(=O)Oc1ccccc1C(=O)O [aspirin] | 0.0873 |
| COCCCC/C(=N\OCCN)c1ccc(C(F)(F)F)cc1 [fluvoxamine maleate] | -0.999 |
| CC(=O)O[C@]1(C(C)=O)CCC2C3C[C@H](C)C4=CC(=O)CC[C@]4(C)C3CC[C@@]21C (stereo not given in full) [medroxyprogesterone acetate] | 0.148 |
| Cc1ncc(CO)c(CO)c1O [pyridoxine] | -0.0627 |
| CC(C)(C#N)c1cc(Cn2cncn2)cc(C(C)(C)C#N)c1 [anastrozole] | 0.405 |
| O=NN(CCCl)C(=O)NCCCl [carmustine] | -0.0873 |

| Structure (SMILES) | APOC3 transcript change (Z-score) |
| --- | --- |
| N[C@@H](CCC(=O)N[C@@H](CS)C(=O)NCC(=O)O)C(=O)O [glutathione] | -0.373 |
| CN1CC(=O)N2[C@H](c3ccc4c(c3)OCO4)c3[nH]c4ccccc4c3C[C@@H]2C1=O [tadalafil] | -0.0311 |
| N[C@@H]1CONC1=O [D-Cycloserine] | -0.465 |
| CCCCC(CC)CCC(CC(C)C)OS(=O)(=O)O (stereo not given) [sodium tetradecyl sulfate] | -0.708 |
| CN1C(=O)CC[C@H]1c1cccnc1 [cotinine] | 0.553 |
| O=C(O)c1cn(-c2ccc(F)cc2)c2cc(N3CCNCC3)c(F)cc2c1=O [sarafloxacin hydrochloride] | 0.672 |
| CC(=O)O[C@]1(C(C)=O)CC[C@H]2[C@@H]3C=C(Cl)C4=CC(=O)[C@@H]5C[C@@H]5[C@]4(C)[C@H]3CC[C@@]21C [cyproterone acetate] | -0.0728 |
| O=C(O)c1cc(O)c2c(c1)[C@@H]([C@H]1c3cc(C(=O)O)cc(O)c3C(=O)c3c(O[C@H]4O[C@H](CO)[C@@H](O)[C@H](O)[C@H]4O)cccc31)c1cccc(O[C@H]3O[C@H](CO)[C@@H](O)[C@H](O)[C@H]3O)c1C2=O (stereo in doubt) [sennoside a] | -0.786 |
| CC(=O)NC[C@H]1CN(c2ccc(N3CCOCC3)c(F)c2)C(=O)O1 [linezolid] | 0.274 |
| CC(C)/N=C(N)/N=C(\N)Nc1ccc(Cl)cc1 [chlorguanide hydrochloride] | 1.11 |
| Nc1nc(O)c2ncn(COC(CO)CO)c2n1 [ganciclovir] | -0.536 |
| O=S(=O)(c1cccc2cnccc12)N1CCCNCC1 [fasudil hydrochloride] | -2.39 |
| CCCCCCCCCCCCCCCC(=O)OC[C@@H](NC(=O)C(Cl)Cl)[C@H](O)c1ccc([N+](=O)[O-])cc1 [chloramphenicol palmitate] | -0.741 |
| c1ccc(-c2ccc(C(c3ccccc3)n3ccnc3)cc2)cc1 (stereo not given) [bifonazole] | 0.577 |
| Cc1cc(CC(=O)O)n(C)c1C(=O)c1ccc(Cl)cc1 [zomepirac sodium] | 0.347 |
| CN1Cc2c(N)cccc2C(c2ccccc2)C1 (stereo not given) [Nomifensine maleate] | 0.743 |
| Oc1nc2ccccc2n1CCCN1CCC(n2c(O)nc3cc(Cl)ccc32)CC1 [Domperidone] | -0.0368 |
| N[C@@H](Cc1cc(I)c(Oc2cc(I)c(O)c(I)c2)c(I)c1)C(=O)O [thyroxine] | 0.123 |
| Cc1cnc(NC(=O)C2=C(O)c3ccccc3S(=O)(=O)N2C)s1 [meloxicam] | 0.374 |
| Nc1ccc(C(=O)O)cc1 [potassium p-aminobenzoate] | -0.0686 |
| CC(=O)O[C@@]12CO[C@@H]1C[C@H](O)[C@@]1(C)C(=O)[C@H](O)C3=C(C)[C@@H](OC(=O)[C@H](O)[C@@H](NC(=O)OC(C)(C)C)c4ccccc4)C[C@@](O)([C@@H](OC(=O)c4ccccc4)[C@H]21)C3(C)C [docetaxel] | 1.92 |
| CCN(CC)C(=O)c1cccc(C)c1 [deet] | -0.558 |
| CCN(CC)C(=O)c1cccnc1 [nikethamide] | -0.284 |
| NC(=O)N1c2ccccc2C=Cc2ccccc21 [Carbamazepine] | 0.0224 |
| CCCCCCCCCC(=O)N[C@@H](Cc1c[nH]c2ccccc12)C(=O)N[C@@H](CC(N)=O)C(=O)N[C@@H](CC(=O)O)C(=O)N[C@@H]1C(=O)NCC(=O)N[C@@H](CCCN)C(=O)N[C@@H](CC(=O)O)C(=O)N[C@H](C)C(=O)N[C@@H](CC(=O)O)C(=O)NCC(=O)N[C@H](CO)C(=O)NC([C@@H](C)CC(=O)O)C(=O)N[C@@H](CC(=O)c2ccccc2N)C(=O)O[C@H]1C (stereo not given in full) [daptomycin (5 millimolar/dmso)] | -1.11 |
